# Measured data: PubChem BioAssay AID1259405 (NCATS, 2018)
# Aim: 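Silenced genes that increase secreted GFP made by CHO cells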 (primary screen)
# System: Chinese hamster CHO-K1 ovary cells with stable secreted eGFP expression
# Knock-down reagent: single siRNA against mouse genes, 0.8 pmol siRNA per well (2 µl of 400 nM stock)
# Timing: 3 days
# Measurement: 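Per-well intracellular GFP measured by laser scanning cytometry, plus viability from ATP luminescence, each relative to plate median of non-targeting control wells, in %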
# Scale: GFP, % of control: higher = more GFP per well, higher productivity; viability (ATP), % of control: higher = more viable cells (more ATP)
# Rule for the call: 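a knock-down is called active if GFP reaches 120% or more of non-targeting control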
# In all, the deposit lists about 50,000 reagents; shown is an unselected part. Over the whole deposit, about 4,000 (8%) are marked active. 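Mouse siRNA library applied to hamster cells; one well for each siRNA.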 Unmarked entries are inactive. Reagents against one gene are numbered here.
target,reagent no.,"GFP, % of control","viability (ATP), % of control"
Plscr1,1,62.1,74.9
Plscr1,2,84.4,86.5
Plscr1,3,20.4,27.4
Lin7b,1,75.1,59.9
Lin7b,2,90,89.5
Csad,1,77.3,84.3
Csad,2,41.2,45.8
Csad,3,73.2,76
C8a,1,52.8,60.5
C8a,2,81.4,76.3
C8a,3,67.3,60.5
Tmem181a,1,134 (active),89.9
Tmem181a,2,78.1,87.6
Tmem181a,3,118,135
Tff1,1,61.5,75.8
Tff1,2,93.7,78.3
Tff1,3,78.9,82
Csf1r,1,87.8,50.8
Pom121,1,56.6,27.8
Pom121,2,63.6,70.2
Pom121,3,68.3,64.4
Gucy1b1,1,96.7,109
Gucy1b1,2,80.7,54.7
Gucy1b1,3,75.3,40.1
Aloxe3,1,61.6,99.5
Aloxe3,2,67.2,85.1
Satb2,1,67.6,67.2
Satb2,2,126 (active),72.7
Satb2,3,72.1,87.2
Capza1b,1,26.9,47.9
Capza1b,2,60.4,75
Capza1b,3,61.6,67.5
Dpep2,1,71.8,67.5
Dpep2,2,98.8,89.3
Dpep2,3,136 (active),118
4930474N05Rik,1,92.8,61.8
4930474N05Rik,2,69,63
4930474N05Rik,3,65.1,91.3
Pi4ka,1,104,114
Pi4ka,2,75.1,84.1
Pi4ka,3,98.9,87.9
Abca9,1,61.6,77.5
Abca9,2,76.8,48.7
Abca9,3,114,88.4
Carf,1,106,64.8
Carf,2,37.6,47.4
Carf,3,68.7,105
Ccr5,1,93.3,68
Ccr5,2,105,89.8
Ccr5,3,84.5,75.9
Slc24a3,1,91.1,96.1
Slc24a3,2,21.5,25.7
Slc24a3,3,91.2,85.4
Atp6v0a4,1,57.2,58.9
Atp6v0a4,2,74.3,63.1
Atp6v0a4,3,55.3,74

Not a retest: entries from further up.
target,reagent no.,"GFP, % of control","viability (ATP), % of control"
Csad,3,73.2,76
C8a,1,52.8,60.5
C8a,2,81.4,76.3
C8a,3,67.3,60.5

Next results:
target,reagent no.,"GFP, % of control","viability (ATP), % of control"
Bub3,1,34.1,32.6
Bub3,2,84.4,70
Bub3,3,109,89.7
Rpl38,1,55.1,38.1
Rpl38,2,57.9,34.4
Rpl38,3,67.3,50.3
Or13c7,1,24.6,32.5
Or13c7,2,73.2,70.4
Or13c7,3,31.4,45.8
Mrpl16,1,59.5,77.4
Mrpl16,2,85.5,74.3
Mrpl16,3,98.4,75.3
Hps1,1,75.9,80
Hps1,2,105,110
Hps1,3,91.6,91.6
Csf1,1,60,62.5
Csf1,2,35.3,67
Csf1,3,94.7,61.9
As3mt,1,86,96.8
As3mt,2,90.3,178
As3mt,3,126 (active),127
Dok1,1,80.7,47.1
Dok1,2,127 (active),93.4
Gbgt1,1,181 (active),143
Gbgt1,2,77.7,71.1
Gbgt1,3,132 (active),95.2
Malt1,1,79.3,84.6
Malt1,2,149 (active),98.1
